Laboratory results from the supplement of paper PMC10849652.
This is one part of the list.

Protein sequences, listed by entry. Tags and fused reporters are not part of them. Lines headed by an entry give the natural chain unless they say otherwise; changes in a name come on top.
UniProt Q9BUV8: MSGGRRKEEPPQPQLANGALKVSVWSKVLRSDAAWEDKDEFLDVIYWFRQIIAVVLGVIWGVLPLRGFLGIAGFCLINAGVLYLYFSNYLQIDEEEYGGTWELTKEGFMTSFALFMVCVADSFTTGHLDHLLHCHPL
UniProt O00194: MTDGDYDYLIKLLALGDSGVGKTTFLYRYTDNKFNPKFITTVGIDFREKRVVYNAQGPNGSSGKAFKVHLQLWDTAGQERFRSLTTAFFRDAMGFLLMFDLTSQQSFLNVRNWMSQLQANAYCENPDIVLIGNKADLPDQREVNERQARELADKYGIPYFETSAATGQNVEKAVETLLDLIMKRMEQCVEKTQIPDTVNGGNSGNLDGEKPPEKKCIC
UniProt Q96B01: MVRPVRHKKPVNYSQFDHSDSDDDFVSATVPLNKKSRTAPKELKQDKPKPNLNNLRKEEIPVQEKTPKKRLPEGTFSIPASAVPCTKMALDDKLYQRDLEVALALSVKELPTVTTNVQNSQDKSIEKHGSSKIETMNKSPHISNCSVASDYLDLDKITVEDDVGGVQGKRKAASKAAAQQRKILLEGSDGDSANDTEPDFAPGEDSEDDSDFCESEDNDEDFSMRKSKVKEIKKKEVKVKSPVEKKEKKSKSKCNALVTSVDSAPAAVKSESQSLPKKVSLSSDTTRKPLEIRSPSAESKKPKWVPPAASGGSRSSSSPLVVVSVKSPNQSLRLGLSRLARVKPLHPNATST
UniProt P32322: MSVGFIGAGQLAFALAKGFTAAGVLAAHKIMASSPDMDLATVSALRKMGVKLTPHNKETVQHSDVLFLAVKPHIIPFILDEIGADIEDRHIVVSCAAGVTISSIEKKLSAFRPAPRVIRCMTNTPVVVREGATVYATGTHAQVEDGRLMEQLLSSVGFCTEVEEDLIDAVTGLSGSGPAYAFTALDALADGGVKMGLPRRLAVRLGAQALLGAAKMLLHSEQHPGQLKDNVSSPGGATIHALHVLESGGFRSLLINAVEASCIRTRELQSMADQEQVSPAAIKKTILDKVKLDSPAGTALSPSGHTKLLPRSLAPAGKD
UniProt Q9BRQ0: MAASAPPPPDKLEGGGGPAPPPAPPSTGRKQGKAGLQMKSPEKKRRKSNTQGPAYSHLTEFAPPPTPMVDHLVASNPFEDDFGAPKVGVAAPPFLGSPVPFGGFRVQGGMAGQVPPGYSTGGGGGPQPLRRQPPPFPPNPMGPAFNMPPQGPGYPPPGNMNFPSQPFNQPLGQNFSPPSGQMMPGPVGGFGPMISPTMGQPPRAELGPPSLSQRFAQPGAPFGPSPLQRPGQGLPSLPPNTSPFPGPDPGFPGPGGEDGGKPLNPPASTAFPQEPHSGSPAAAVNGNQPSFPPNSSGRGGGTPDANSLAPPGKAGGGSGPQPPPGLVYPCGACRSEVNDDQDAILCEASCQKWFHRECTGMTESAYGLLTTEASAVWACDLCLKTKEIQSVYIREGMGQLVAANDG
UniProt Q86YS6: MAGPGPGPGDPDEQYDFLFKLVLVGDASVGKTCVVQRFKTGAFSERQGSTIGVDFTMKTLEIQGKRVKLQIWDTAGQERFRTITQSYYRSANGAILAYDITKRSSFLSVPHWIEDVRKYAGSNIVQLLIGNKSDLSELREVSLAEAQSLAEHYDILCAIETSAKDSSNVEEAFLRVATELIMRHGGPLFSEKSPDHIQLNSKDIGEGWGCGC
UniProt Q92878: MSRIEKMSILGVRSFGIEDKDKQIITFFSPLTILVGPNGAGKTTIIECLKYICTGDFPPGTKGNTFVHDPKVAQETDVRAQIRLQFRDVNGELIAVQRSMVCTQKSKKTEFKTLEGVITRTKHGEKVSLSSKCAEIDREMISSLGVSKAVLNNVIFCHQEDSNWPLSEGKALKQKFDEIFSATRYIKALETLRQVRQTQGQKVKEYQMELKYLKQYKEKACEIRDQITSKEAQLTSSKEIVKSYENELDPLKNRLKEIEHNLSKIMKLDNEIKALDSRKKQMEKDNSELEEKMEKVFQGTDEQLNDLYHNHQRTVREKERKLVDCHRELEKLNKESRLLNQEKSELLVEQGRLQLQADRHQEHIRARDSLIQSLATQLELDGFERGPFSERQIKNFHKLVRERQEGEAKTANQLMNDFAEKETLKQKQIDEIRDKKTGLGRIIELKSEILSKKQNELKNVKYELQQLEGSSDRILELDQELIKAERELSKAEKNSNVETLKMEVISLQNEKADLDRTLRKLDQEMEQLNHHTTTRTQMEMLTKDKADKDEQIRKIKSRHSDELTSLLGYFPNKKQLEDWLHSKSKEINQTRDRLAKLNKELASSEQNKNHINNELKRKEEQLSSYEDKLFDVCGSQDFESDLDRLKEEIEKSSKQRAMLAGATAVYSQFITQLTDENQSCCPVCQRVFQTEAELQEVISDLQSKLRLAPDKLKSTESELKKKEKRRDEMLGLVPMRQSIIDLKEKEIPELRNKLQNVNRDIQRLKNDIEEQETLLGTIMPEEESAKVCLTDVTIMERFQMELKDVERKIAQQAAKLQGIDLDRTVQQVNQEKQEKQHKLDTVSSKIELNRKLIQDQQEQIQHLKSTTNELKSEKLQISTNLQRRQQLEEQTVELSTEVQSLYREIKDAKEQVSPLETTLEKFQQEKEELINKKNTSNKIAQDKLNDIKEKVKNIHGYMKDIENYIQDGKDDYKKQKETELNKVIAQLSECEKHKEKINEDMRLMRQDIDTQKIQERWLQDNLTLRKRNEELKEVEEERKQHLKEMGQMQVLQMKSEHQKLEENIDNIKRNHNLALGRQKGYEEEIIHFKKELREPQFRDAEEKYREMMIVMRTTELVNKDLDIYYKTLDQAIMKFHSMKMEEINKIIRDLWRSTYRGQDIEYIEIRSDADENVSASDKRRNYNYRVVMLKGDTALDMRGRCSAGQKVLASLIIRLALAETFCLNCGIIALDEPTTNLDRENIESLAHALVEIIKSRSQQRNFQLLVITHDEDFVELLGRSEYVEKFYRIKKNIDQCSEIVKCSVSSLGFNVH

How the values were obtained:
Assay in all cases: log2 fold change, soluble protein after heating vs DMSO (PISA); higher = thermal stabilisation; K562 lysate, 10 uM; active = over 0.2 and 3.5 SD of the protein, either way, in both replicates (recomputed)
[1] = compound: NCC(=O)Nc1ccc(-n2nc(C(F)(F)F)cc2-c2ccc3c(ccc4ccccc43)c2)cc1
Method in brief: (§1)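 Values give the log-two fold change in thermal stability against solvent controls, from duplicates. Crude K562 extract at 1 mg/mL protein, made by dounce homogenisation in PBS pH 7.4 with 1 mM MgCl2, was treated with 10 μM compound for 30 min. After 3 min heating across 48°C-58°C, aliquots were pooled, adjusted to 0.5% NP-40 at 4°C and centrifuged at 21,000xg for 90 min. The supernatant was measured by TMTpro 16plex LC-MS/MS with channel sums equalised.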

vorinostat = compound: O=C(CCCCCCC(=O)Nc1ccccc1)NO [vorinostat]
Method in brief: as §1

silmitasertib = compound: O=C(O)c1ccc2c(c1)nc(Nc1cccc(Cl)c1)c1ccncc12 [silmitasertib]
Method in brief: as §1

entospletinib = compound: c1cn2cc(-c3ccc4cn[nH]c4c3)nc(Nc3ccc(N4CCOCC4)cc3)c2n1 [entospletinib]
Method in brief: as §1

[2] = compound: O=C1NC(=O)C(c2cnc3ccccn23)=C1c1cn2c3c(cc(F)cc13)CN(C(=O)N1CCCCC1)CC2
Method in brief: as §1

Measured: log2 fold change

RAB5IF isoform 5 (UniProt Q9BUV8)
inactive: [1] -0.039 | vorinostat -0.039 | silmitasertib -0.007 | entospletinib -0.015

RAB27B (UniProt O00194)
inactive: [1] -0.001 | vorinostat 0.12 | silmitasertib 0.002 | entospletinib 0.167

RAD51AP1 (UniProt Q96B01)
inactive: vorinostat 0.053 | silmitasertib -0.077 | [2] 0.014 | entospletinib -0.011

PYCR1 isoform 3 (UniProt P32322)
inactive: vorinostat 0.096 | silmitasertib -0.008 | [2] 0.012 | entospletinib 0.01

2 records picked at random from those above, as already listed:
RAB5IF isoform 5 (UniProt Q9BUV8)
inactive: [1] -0.039 | vorinostat -0.039 | silmitasertib -0.007 | entospletinib -0.015

RAD51AP1 (UniProt Q96B01)
inactive: vorinostat 0.053 | silmitasertib -0.077 | [2] 0.014 | entospletinib -0.011

Going on with the list.

R3HCC1L, A0A384DVK4
inactive: [1] 0.109 | vorinostat -0.043 | silmitasertib -0.068 | [2] 0.001 | entospletinib 0.013

PYGO2 (UniProt Q9BRQ0)
active: entospletinib 0.269
inactive: vorinostat 0.151 | silmitasertib -0.067 | [2] -0.003

RAB43 (UniProt Q86YS6)
inactive: vorinostat 0.045 | silmitasertib -0.015 | entospletinib 0.029

RACK1 (UniProt D6RF23)
inactive: [1] 0.004 | entospletinib -0.073

RAD50 isoform 2 (UniProt Q92878)
active: vorinostat -0.458
inactive: [1] -0.005 | silmitasertib 0.024 | [2] -0.009 | entospletinib -0.003
